Laboratory results from paper PMC10663520, “Qa-SNARE syntaxin 18 mediates lipid droplet fusion with SNAP23 and SEC22B” (Cell Discovery, 2023).

Legend:
[1] = molecular target: T1, Flag-STX18 WT (syntaxin 18) (UniProt Q9P2W9); assay: co-IP; cells (HEK293T in the legend, HepG2 in the text) transfected with Flag-STX18 and GFP-FSP27 36 h, with or without 0.2 mM OA-BSA 12 h; Flag IP; western blot
T1 sequence: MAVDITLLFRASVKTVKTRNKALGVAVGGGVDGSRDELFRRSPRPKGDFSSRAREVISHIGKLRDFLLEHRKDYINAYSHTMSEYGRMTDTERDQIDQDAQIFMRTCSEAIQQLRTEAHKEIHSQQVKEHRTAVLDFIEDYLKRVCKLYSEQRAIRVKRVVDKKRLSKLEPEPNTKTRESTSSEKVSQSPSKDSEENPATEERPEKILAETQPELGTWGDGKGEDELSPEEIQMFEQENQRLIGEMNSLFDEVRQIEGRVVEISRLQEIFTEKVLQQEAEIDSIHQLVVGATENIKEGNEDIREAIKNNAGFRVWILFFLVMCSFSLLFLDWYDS

[2] = molecular target: T2, GST-Flag-STX18 (full-length) (UniProt Q9P2W9); assay: pull-down; GST-Flag-tagged SNARE on GST agarose beads, 4 °C 1 h; 20 mM HEPES pH 7.4, 300 mM NaCl, 1 mM EDTA, 1% OG; purified FSP27 (3.3 mg/mL, 5 μL) added; western blot; both purified
T2 sequence: T1 sequence

Substance | binding [1] | binding [2]
GFP-FSP27 (CIDEC/FSP27) | binds | 
CIDEC/FSP27 (full-length, purified) |  | binds

Results are given in words; binding and its absence hold for the method and conditions named. Binding can be weak; no strength is given. Sequences can lack the tags named with a protein. For some assays here: Binding seen in cells or lysates may run through a third protein.
